The list is a part of this screen's results and no random one: it is rich in T/C values a quarter to a half above the control, in often repeated tests (any T/C) and in doses without a T/C. Further doses and runs are listed elsewhere. T/C gives the treated animals as a percentage of the vehicle group. Some entries give survivors of the animals treated and no T/C: the source files T/C as zero there, which appears to mark a toxic dose or a test without result, not a measured value. Some survivor counts are full or nearly so, which does not show that the dose was tolerated: survival well below the control is almost never listed, so the zero probably covers shortened survival too. Counts of survivors are from the toxicity check (mostly the fifth day) where no day follows; animals may have died later. Schedules are NCI's codes, taken here to give the interval after Q, in days (D) or hours (H), and the number of doses after X. Some doses were run more than once; the results are listed from low to high. Where survival is the endpoint, this PubChem deposit counts one and a half times the control or more as active, and values a quarter to a half above the control carry no call in these data; other NCI protocols may use other cut-offs. Some T/C values are followed by the survivors on the day toxicity was checked, most often the fifth; where none is given, no animal had died by that day.
System: P388 leukemia ip, CD2F1 mice, survival T/C
Test: NCI In Vivo Anticancer Drug Screen. Data for tumor model P388 Leukemia (intraperitoneal) in CD2F1 (CDF1) mice
Conditions: T/C endpoint: median survival time, higher T/C = longer survival
[1] = dose: 200.0 mg/kg/injection, schedule: Q04DX003 (ip), vehicle: saline + alcohol
[2] = dose: 25.0 mg/kg/injection, schedule: Q01DX009 (ip), vehicle: saline
[3] = dose: 50.0 mg/kg/injection, schedule: Q01DX009 (ip), vehicle: saline
[4] = dose: 200.0 mg/kg/injection, schedule: Q01DX005 (ip), vehicle: saline with Tween-80

Which T/C (dose: 50.0 mg/kg/injection, schedule: Q01DX009 (ip), vehicle: saline + alcohol) does the source give for `CCOC(=O)C(=O)Nc1oc(C)c(C)c1C#N` here?
Its T/C is 110, 110 [5 of 6 alive], 116, 124 % of control.

What about the survivor count (dose: 100.0 mg/kg/injection, schedule: Q01DX009 (ip), vehicle: saline + alcohol) of the same compound?
The survivor count was 3 of 6.

What about the survivor count (dose: 200.0 mg/kg/injection, schedule: Q01DX009 (ip), vehicle: saline + alcohol) of the same compound?
The survivor count was 0 of 6.

And the survivor count [1]?
Its survivor count is 2 of 6.

What about the survivor count (dose: 400.0 mg/kg/injection, schedule: Q01DX001 (ip), vehicle: saline + alcohol) of the same compound?
Its survivor count is 0 of 6.

For `c1ccc([P+](NCCN[P+](c2ccccc2)(c2ccccc2)c2ccccc2)(c2ccccc2)c2ccccc2)cc1`, which survivor count [2] is on record?
Its survivor count is 5 of 6.

What about the survivor count [3] of the same compound?
The survivor count was 1 of 6.

What about the survivor count (dose: 100.0 mg/kg/injection, schedule: Q01DX009 (ip), vehicle: saline) of the same compound?
The survivor count was 0 of 6.

And the survivor count (dose: 200.0 mg/kg/injection, schedule: Q01DX009 (ip), vehicle: saline)?
The survivor count was 0 of 6.

`CCCCCCCCCCCCOC(=O)c1ccc(O)cc1` was tested. Which survivor count (dose: 200.0 mg/kg/injection, schedule: Q01DX009 (ip), vehicle: Klucel (hydroxypropylcellulose) (HPC)) did it give?
Its survivor count is 5 of 6.

Which survivor count [4] does the source give for `O=C1NC(=O)C2CC3C(CC12)C1C(=O)NC(=O)C31` (centres undefined) here?
The survivor count was 1 of 6.

Which results are given for `O=c1cc(CO)[nH]cc1O`?
survivor count (dose: 180.0 mg/kg/injection, schedule: Q01DX009 (ip), vehicle: saline with Tween-80): 6 of 6; survivor count (dose: 266.0 mg/kg/injection, schedule: Q01DX009 (ip), vehicle: saline with Tween-80): 6 of 6

`COc1ccc(CC2C(=O)OC(C)C(NC(=O)C(CC(C)C)N(C)C(=O)C3CCCN3C(=O)C(C)O)C(=O)NC(C(C)C)C(O)CC(=O)OC(C(C)C)C(=O)C(C)C(=O)NC(CC(C)C)C(=O)N3CCCC3C(=O)N2C)cc1` (centres undefined) was tested. Which T/C (dose: 75.0 micrograms/kg/injection, schedule: Q01DX005 (ip), vehicle: distilled water + alcohol) did it give?
Its T/C is 128 and 131 % of control.

What about the T/C (dose: 125.0 micrograms/kg/injection, schedule: Q01DX005 (ip), vehicle: distilled water + alcohol) of the same compound?
Its T/C is 131 and 141 % of control.

And the T/C (dose: 250.0 micrograms/kg/injection, schedule: Q01DX005 (ip), vehicle: distilled water + alcohol)?
The T/C was 148 % of control.

What about the survivor count (dose: 500.0 micrograms/kg/injection, schedule: Q01DX005 (ip), vehicle: distilled water + alcohol) of the same compound?
Its survivor count is 5 of 6.

And the survivor count (dose: 1000.0 micrograms/kg/injection, schedule: Q01DX005 (ip), vehicle: distilled water + alcohol)?
The survivor count was 1 of 6.

How did the survivor count [4] turn out when `C(CCc1nn[nH]n1)CCC1CCCCC1` was run?
Its survivor count is 3 of 5.

`COC(=O)[C@@H]1[C@H](O)[C@H](C)[C@H](O)[C@H](C)/C=C\C=C(C)C(=O)Nc2c(C)c(OC(C)=O)c3c(c2O)C(=O)C(C)=C2OCOC(=C23)C(C)=C[C@@](C)(O)[C@H](O)[C@@H](C)[C@H]1OC(C)=O` was tested. Which survivor count [3] did it give?
The survivor count was 6 of 6.

What about the T/C (dose: 400.0 mg/kg/injection, schedule: Q01DX009 (ip), vehicle: saline) of the same compound?
The T/C was 125 % of control [4 of 6 alive].

Which survivor count (dose: 50.0 mg/kg/injection, schedule: Q04DX003 (ip), vehicle: Klucel (hydroxypropylcellulose) (HPC)) does the source give for `COC(=O)N1CCC(N)(C#N)CC1` here?
Its survivor count is 1 of 6.

And the survivor count (dose: 65.5 mg/kg/injection, schedule: Q04DX003 (ip), vehicle: Klucel (hydroxypropylcellulose) (HPC))?
The survivor count was 0 of 6.

And the survivor count (dose: 131.0 mg/kg/injection, schedule: Q04DX003 (ip), vehicle: Klucel (hydroxypropylcellulose) (HPC))?
Its survivor count is 0 of 6.

And the survivor count (dose: 262.0 mg/kg/injection, schedule: Q04DX003 (ip), vehicle: Klucel (hydroxypropylcellulose) (HPC))?
Its survivor count is 0 of 6.

For `CCOc1ccc(Nc2ccc(/C(=C3\C=CC(=[N+](CC)Cc4cccc(S(=O)(=O)O)c4)C=C3C)c3ccc(N(CC)Cc4cccc(S(=O)(=O)O)c4)cc3C)cc2)cc1`, which survivor count (dose: 200.0 mg/kg/injection, schedule: Q01DX009 (ip), vehicle: saline with Tween-80) is on record?
The survivor count was 2 of 6.

Which results are given for `CCCCCC(=O)SCC(=O)OCC(=O)[C@]1(O)Cc2c(O)c3c(c(O)c2[C@@H](OC2CC(N)C(O)C(C)O2)C1)C(=O)c1c(OC)cccc1C3=O` (some centres undefined)?
T/C (dose: 0.39 mg/kg/injection, schedule: Q01DX009 (ip), vehicle: water): 148 % of control; survivor count (dose: 12.5 mg/kg/injection, schedule: Q01DX009 (ip), vehicle: water): 6 of 6; survivor count (dose: 25.0 mg/kg/injection, schedule: Q01DX009 (ip), vehicle: water): 1 of 6

What does the source list for `C=C=CCN(C)Cc1ccccc1`?
survivor count (dose: 200.0 mg/kg/injection, schedule: Q04DX002 (ip), vehicle: saline): 2 of 6 and 3 of 6; survivor count (dose: 400.0 mg/kg/injection, schedule: Q04DX002 (ip), vehicle: saline): 0 of 6

Which results are given for `O=P(N1CC=CCC1)(N1CC1)N1CC1`?
T/C (dose: 12.5 mg/kg/injection, schedule: Q01DX009 (ip), vehicle: saline): 131 % of control; T/C (dose: 15.0 mg/kg/injection, schedule: Q04DX003 (ip), vehicle: saline): 145 % of control; survivor count (dose: 18.7 mg/kg/injection, schedule: Q01DX009 (ip), vehicle: saline): 6 of 6

For `COc1cc2cc[n+]3cc4c(ccc5ccccc54)cc3c2cc1OC`, which T/C (dose: 3.13 mg/kg/injection, schedule: Q04DX003 (ip), vehicle: distilled water + Tween-80) is on record?
The T/C was 146 % of control.

What about the T/C (dose: 3.13 mg/kg/injection, schedule: Q04DX003 (ip), vehicle: water) of the same compound?
The T/C was 127 % of control.

And the T/C (dose: 6.25 mg/kg/injection, schedule: Q04DX003 (ip), vehicle: water)?
The T/C was 142 % of control [5 of 6 alive].

What about the T/C (dose: 25.0 mg/kg/injection, schedule: Q04DX003 (ip), vehicle: water) of the same compound?
The T/C was 148 % of control.

And the survivor count (dose: 50.0 mg/kg/injection, schedule: Q04DX003 (ip), vehicle: distilled water + Tween-80)?
Its survivor count is 0 of 6 and 3 of 4.

And the survivor count (dose: 100.0 mg/kg/injection, schedule: Q04DX003 (ip), vehicle: distilled water + Tween-80)?
Its survivor count is 0 of 4.

What about the survivor count (dose: 200.0 mg/kg/injection, schedule: Q04DX003 (ip), vehicle: distilled water + Tween-80) of the same compound?
The survivor count was 0 of 4.

What about the survivor count (dose: 400.0 mg/kg/injection, schedule: Q04DX003 (ip), vehicle: distilled water + Tween-80) of the same compound?
Its survivor count is 0 of 4.

Which results are given for `C=C(C#N)CCl`?
survivor count (dose: 100.0 mg/kg/injection, schedule: Q01DX001 (ip), vehicle: saline with Tween-80): 1 of 6 and 1 of 3; survivor count (dose: 200.0 mg/kg/injection, schedule: Q01DX001 (ip), vehicle: saline with Tween-80): 0 of 6; survivor count (dose: 400.0 mg/kg/injection, schedule: Q01DX001 (ip), vehicle: saline with Tween-80): 0 of 6

With `O.O.[Cl][Pt+2][Cl].[NH-]C1CC2CCC1C2.[NH-]C1CC2CCC1C2` (centres undefined) as the compound, how does the T/C (dose: 22.0 mg/kg/injection, schedule: Q04DX003 (ip), vehicle: saline with Tween-80) read?
Its T/C is 139 % of control.

What about the T/C (dose: 75.0 mg/kg/injection, schedule: Q04DX003 (ip), vehicle: saline with Tween-80) of the same compound?
Its T/C is 148 % of control.

With `COC(=O)C1c2cc3c(c(O)c2CCC1(C)O)C(=O)c1c(O)cc2c(c1C3=O)OC1OC2(C)C(O)C(N(C)C)C1O` (centres undefined) as the compound, how does the T/C (dose: 12.5 mg/kg/injection, schedule: Q04DX003 (ip), vehicle: saline) read?
The T/C was 145 % of control.

What about the T/C [2] of the same compound?
Its T/C is 125 % of control.

What about the T/C [3] of the same compound?
The T/C was 127 % of control.

How did the survivor count (dose: 240.0 mg/kg/injection, schedule: Q01DX005 (ip), vehicle: saline with Tween-80) turn out when `O=S(=O)(Nc1ccc(Cl)cc1C(F)(F)F)c1ccc(F)cc1` was run?
Its survivor count is 2 of 6.

How did the survivor count [1] turn out when `CC(=O)CC(=O)c1c(-c2ccccc2)[nH]c2ccccc12` was run?
The survivor count was 0 of 6.

And the survivor count (dose: 400.0 mg/kg/injection, schedule: Q04DX003 (ip), vehicle: saline + alcohol)?
Its survivor count is 0 of 6.

How did the survivor count [4] turn out when `CCOC(=O)C(=O)C(C#N)c1ccccc1CC#N` (centres undefined) was run?
The survivor count was 0 of 6.

Reference: PubChem BioAssay AID330 (DTP/NCI, 2004)
